This is one part of the list.
Tests used:
Assay in all cases: log2 fold change, soluble protein after heating vs DMSO (PISA); higher = thermal stabilisation; K562 lysate, 10 uM; active = over 0.2 and 3.5 SD of the protein, either way, in both replicates (recomputed)
[1] = compound: NCC(=O)Nc1ccc(-n2nc(C(F)(F)F)cc2-c2ccc3c(ccc4ccccc43)c2)cc1
How it was run: (§1)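 Dounce homogenisation of K562 pellets in PBS pH 7.4 with 1 mM MgCl2 produced a crude extract, used at 1 mg/mL protein. Exposure to 10 μM compound lasted 30 min, and aliquots were then heated for 3 min across 48°C-58°C, pooled and brought to 0.5% NP-40 at 4°C. The supernatant after 21,000xg for 90 min was quantified by TMTpro 16plex LC-MS/MS with channel sums equalised. Duplicate values are given as log-two fold change in thermal stability relative to solvent controls.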

Amino acid sequences for entries named in this document (tags omitted). A change or cut given only in a name is not applied to a line headed by its entry.
UniProt Q96EY9: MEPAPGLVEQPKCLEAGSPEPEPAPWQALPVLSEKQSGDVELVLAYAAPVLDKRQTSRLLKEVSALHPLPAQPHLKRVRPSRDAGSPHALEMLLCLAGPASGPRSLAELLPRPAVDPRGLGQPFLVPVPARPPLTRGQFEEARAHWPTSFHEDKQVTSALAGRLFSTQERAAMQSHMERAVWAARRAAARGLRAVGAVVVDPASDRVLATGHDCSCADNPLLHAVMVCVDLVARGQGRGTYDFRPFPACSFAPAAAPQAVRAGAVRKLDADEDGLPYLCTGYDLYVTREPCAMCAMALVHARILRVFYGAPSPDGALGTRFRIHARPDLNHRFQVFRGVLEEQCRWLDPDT
UniProt Q9Y305: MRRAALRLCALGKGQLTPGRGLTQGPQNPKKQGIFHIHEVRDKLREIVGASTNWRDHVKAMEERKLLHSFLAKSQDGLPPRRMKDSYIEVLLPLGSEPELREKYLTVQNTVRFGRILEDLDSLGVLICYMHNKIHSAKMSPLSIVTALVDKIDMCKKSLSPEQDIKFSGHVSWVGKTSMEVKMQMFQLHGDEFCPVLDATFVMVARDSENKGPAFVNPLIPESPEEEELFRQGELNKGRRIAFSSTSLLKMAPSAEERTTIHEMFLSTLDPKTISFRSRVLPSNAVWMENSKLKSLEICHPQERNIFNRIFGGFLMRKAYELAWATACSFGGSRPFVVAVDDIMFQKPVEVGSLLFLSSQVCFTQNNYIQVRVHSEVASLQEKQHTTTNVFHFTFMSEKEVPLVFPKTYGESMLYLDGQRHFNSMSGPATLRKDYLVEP
UniProt O00170: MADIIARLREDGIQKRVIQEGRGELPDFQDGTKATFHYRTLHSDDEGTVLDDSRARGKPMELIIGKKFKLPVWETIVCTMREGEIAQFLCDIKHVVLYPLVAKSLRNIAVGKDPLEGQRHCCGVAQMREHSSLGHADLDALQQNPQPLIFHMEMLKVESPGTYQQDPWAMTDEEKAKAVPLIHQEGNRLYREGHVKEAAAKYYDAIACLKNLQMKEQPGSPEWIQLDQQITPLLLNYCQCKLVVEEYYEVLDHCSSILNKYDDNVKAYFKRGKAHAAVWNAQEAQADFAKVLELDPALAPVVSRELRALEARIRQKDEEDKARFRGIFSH
UniProt Q9UHX3: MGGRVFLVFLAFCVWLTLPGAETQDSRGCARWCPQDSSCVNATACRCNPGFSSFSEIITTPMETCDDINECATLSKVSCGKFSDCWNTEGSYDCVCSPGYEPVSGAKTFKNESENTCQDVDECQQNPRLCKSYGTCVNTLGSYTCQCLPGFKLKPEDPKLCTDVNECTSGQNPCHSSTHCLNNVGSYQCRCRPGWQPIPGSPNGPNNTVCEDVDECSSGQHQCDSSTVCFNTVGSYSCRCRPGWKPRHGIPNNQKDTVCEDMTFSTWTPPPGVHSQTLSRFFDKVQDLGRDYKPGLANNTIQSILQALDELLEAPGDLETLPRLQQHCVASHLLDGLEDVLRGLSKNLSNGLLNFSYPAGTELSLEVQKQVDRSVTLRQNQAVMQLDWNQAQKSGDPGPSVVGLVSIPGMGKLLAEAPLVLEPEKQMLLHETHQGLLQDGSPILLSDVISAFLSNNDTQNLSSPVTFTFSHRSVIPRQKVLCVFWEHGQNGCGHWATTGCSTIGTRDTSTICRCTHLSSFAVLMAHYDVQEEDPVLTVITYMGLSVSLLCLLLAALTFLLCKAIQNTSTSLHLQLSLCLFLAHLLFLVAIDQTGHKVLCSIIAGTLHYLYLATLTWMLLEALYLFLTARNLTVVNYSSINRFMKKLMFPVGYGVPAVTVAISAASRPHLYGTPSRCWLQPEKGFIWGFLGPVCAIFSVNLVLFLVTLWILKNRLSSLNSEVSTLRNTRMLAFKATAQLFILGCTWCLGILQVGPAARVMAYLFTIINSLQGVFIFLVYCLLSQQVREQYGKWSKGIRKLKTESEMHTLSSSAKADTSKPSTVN
UniProt Q6RW13: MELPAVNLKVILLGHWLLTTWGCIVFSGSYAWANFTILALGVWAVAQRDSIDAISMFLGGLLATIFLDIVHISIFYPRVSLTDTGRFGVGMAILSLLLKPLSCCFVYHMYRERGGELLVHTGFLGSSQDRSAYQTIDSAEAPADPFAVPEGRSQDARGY
UniProt P52594: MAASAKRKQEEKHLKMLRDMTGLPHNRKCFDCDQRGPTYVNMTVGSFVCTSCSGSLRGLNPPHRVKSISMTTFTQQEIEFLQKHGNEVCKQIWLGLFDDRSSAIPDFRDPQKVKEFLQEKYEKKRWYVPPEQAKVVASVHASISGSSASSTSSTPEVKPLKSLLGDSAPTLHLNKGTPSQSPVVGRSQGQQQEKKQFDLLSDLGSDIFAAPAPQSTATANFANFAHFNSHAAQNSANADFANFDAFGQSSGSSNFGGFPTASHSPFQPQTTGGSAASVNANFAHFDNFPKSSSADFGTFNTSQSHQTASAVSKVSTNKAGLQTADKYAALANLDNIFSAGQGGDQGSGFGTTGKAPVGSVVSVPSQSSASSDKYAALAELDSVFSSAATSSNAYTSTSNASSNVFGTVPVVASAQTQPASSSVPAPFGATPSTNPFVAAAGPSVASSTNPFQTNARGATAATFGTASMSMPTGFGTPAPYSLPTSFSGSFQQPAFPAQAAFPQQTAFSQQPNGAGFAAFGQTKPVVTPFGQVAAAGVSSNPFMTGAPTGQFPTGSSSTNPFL
UniProt Q8N302: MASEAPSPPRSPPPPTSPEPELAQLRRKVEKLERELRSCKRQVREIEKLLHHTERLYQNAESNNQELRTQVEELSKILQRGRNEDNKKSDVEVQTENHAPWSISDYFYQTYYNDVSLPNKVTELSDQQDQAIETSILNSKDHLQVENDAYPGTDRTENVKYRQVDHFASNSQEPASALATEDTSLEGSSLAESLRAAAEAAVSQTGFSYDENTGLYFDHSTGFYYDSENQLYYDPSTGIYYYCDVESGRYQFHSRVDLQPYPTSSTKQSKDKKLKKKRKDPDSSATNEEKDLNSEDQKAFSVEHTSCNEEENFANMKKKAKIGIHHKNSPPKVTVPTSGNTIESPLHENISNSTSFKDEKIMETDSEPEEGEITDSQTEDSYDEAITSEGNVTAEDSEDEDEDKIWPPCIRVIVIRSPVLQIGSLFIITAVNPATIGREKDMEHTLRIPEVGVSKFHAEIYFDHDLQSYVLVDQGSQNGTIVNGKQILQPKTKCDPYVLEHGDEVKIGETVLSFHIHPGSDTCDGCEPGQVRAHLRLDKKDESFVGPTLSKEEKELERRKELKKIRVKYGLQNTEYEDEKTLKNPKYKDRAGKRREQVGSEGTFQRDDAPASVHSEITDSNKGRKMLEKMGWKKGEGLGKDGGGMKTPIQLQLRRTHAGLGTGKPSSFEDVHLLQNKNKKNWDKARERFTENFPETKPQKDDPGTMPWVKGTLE
UniProt P00568: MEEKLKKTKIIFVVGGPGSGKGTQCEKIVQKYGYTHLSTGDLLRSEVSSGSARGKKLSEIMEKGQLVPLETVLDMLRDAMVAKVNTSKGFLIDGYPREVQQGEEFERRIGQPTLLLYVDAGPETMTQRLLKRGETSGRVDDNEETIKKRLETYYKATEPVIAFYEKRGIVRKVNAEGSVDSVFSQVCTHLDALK
UniProt Q92667: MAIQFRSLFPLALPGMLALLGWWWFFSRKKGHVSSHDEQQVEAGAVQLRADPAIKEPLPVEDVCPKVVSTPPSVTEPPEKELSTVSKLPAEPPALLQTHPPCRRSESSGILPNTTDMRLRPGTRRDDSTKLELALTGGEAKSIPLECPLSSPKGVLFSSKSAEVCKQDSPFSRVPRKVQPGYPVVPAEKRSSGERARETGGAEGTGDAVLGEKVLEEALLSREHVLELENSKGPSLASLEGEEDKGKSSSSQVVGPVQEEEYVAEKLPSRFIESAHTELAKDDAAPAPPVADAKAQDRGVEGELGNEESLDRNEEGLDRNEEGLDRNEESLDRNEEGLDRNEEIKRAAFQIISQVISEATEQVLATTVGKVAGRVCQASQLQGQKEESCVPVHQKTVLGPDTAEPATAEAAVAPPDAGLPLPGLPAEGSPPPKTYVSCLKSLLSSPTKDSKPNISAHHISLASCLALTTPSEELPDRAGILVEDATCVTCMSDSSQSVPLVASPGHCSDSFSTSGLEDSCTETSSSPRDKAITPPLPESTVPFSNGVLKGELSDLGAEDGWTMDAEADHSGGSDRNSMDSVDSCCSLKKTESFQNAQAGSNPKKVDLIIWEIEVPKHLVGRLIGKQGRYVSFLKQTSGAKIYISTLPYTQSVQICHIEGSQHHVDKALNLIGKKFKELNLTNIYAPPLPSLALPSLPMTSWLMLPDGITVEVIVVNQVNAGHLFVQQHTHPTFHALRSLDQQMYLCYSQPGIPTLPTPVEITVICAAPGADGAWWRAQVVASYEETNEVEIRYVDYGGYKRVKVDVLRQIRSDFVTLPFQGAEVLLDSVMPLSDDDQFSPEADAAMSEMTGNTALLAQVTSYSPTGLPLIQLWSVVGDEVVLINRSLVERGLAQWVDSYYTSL
UniProt Q9BQI0: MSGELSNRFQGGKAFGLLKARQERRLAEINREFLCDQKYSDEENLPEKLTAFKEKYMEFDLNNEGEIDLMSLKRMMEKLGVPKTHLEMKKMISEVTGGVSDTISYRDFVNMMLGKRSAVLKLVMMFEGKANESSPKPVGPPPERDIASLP

vorinostat = compound: O=C(CCCCCCC(=O)Nc1ccccc1)NO [vorinostat]
How it was run: as §1

silmitasertib = compound: O=C(O)c1ccc2c(c1)nc(Nc1cccc(Cl)c1)c1ccncc12 [silmitasertib]
How it was run: as §1

[2] = compound: O=C1NC(=O)C(c2cnc3ccccn23)=C1c1cn2c3c(cc(F)cc13)CN(C(=O)N1CCCCC1)CC2
How it was run: as §1

entospletinib = compound: c1cn2cc(-c3ccc4cn[nH]c4c3)nc(Nc3ccc(N4CCOCC4)cc3)c2n1 [entospletinib]
How it was run: as §1

Measured: log2 fold change

ADAT3 (UniProt Q96EY9)
inactive: [1] 0.032 | vorinostat -0.053 | silmitasertib 0.04 | [2] 0.019 | entospletinib 0.008

ACOT9 isoform 4 (UniProt Q9Y305)
inactive: [1] -0.027 | vorinostat -0.185 | silmitasertib 0.021 | [2] -0.049 | entospletinib 0.016

AIP (UniProt O00170)
inactive: [1] -0.001 | vorinostat -0.061 | silmitasertib -0.032 | [2] 0.003 | entospletinib -0.003

ADGRE2 (UniProt Q9UHX3)
inactive: [1] -0.045 | vorinostat 0.195 | silmitasertib -0.041 | [2] -0.013 | entospletinib -0.024

AGTRAP (UniProt Q6RW13)
inactive: [1] -0.117 | vorinostat 0.069 | silmitasertib -0.001 | [2] 0.021 | entospletinib 0.056

3 successive entries from above:
ADAT3 (UniProt Q96EY9)
inactive: [1] 0.032 | vorinostat -0.053 | silmitasertib 0.04 | [2] 0.019 | entospletinib 0.008

ACOT9 isoform 4 (UniProt Q9Y305)
inactive: [1] -0.027 | vorinostat -0.185 | silmitasertib 0.021 | [2] -0.049 | entospletinib 0.016

AIP (UniProt O00170)
inactive: [1] -0.001 | vorinostat -0.061 | silmitasertib -0.032 | [2] 0.003 | entospletinib -0.003

Going on with the list.

AGO4 (UniProt Q9HCK5)
inactive: [1] -0.007 | vorinostat 0.09 | silmitasertib -0.018 | [2] -0.006 | entospletinib -0.013

AGFG1 isoform 4 (UniProt P52594)
inactive: [1] -0.001 | vorinostat 0.101 | silmitasertib -0.029 | [2] -0.056 | entospletinib -0.023

AGGF1 (UniProt Q8N302)
inactive: [1] 0.135 | vorinostat 0.059 | silmitasertib -0.06 | [2] 0 | entospletinib -0.015

AK1 (UniProt P00568)
inactive: [1] 0.005 | vorinostat 0.075 | silmitasertib 0.001 | [2] -0.001 | entospletinib 0.022

AKAP1 (UniProt Q92667)
inactive: [1] 0.005 | vorinostat 0.015 | silmitasertib 0.011 | [2] -0.019 | entospletinib -0.063

AIF1L (UniProt Q9BQI0)
inactive: vorinostat -0.048 | silmitasertib 0.083 | [2] 0.022 | entospletinib 0.116

— the supplement of paper PMC10849652
